## Percent effect of library compounds

By UniProt entry, the sequences of proteins in these tests, tags left out. Residues count along the entry.
UniProt Q8IDJ8, 1-583: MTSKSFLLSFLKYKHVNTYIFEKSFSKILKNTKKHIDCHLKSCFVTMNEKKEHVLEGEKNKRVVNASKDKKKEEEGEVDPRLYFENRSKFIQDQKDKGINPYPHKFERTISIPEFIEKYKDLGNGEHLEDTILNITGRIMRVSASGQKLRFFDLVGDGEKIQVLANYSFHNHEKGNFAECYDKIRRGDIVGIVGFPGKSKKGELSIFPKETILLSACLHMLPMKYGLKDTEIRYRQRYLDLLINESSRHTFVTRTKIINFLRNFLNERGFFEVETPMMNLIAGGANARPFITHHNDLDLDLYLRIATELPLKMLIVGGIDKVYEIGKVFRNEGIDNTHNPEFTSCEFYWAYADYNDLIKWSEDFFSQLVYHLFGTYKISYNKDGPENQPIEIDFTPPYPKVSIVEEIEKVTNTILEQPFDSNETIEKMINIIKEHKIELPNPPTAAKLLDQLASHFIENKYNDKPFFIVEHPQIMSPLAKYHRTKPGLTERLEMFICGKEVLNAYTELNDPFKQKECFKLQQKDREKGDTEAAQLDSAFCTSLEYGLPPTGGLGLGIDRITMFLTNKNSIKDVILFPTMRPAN
UniProt I6X8D2, whole entry: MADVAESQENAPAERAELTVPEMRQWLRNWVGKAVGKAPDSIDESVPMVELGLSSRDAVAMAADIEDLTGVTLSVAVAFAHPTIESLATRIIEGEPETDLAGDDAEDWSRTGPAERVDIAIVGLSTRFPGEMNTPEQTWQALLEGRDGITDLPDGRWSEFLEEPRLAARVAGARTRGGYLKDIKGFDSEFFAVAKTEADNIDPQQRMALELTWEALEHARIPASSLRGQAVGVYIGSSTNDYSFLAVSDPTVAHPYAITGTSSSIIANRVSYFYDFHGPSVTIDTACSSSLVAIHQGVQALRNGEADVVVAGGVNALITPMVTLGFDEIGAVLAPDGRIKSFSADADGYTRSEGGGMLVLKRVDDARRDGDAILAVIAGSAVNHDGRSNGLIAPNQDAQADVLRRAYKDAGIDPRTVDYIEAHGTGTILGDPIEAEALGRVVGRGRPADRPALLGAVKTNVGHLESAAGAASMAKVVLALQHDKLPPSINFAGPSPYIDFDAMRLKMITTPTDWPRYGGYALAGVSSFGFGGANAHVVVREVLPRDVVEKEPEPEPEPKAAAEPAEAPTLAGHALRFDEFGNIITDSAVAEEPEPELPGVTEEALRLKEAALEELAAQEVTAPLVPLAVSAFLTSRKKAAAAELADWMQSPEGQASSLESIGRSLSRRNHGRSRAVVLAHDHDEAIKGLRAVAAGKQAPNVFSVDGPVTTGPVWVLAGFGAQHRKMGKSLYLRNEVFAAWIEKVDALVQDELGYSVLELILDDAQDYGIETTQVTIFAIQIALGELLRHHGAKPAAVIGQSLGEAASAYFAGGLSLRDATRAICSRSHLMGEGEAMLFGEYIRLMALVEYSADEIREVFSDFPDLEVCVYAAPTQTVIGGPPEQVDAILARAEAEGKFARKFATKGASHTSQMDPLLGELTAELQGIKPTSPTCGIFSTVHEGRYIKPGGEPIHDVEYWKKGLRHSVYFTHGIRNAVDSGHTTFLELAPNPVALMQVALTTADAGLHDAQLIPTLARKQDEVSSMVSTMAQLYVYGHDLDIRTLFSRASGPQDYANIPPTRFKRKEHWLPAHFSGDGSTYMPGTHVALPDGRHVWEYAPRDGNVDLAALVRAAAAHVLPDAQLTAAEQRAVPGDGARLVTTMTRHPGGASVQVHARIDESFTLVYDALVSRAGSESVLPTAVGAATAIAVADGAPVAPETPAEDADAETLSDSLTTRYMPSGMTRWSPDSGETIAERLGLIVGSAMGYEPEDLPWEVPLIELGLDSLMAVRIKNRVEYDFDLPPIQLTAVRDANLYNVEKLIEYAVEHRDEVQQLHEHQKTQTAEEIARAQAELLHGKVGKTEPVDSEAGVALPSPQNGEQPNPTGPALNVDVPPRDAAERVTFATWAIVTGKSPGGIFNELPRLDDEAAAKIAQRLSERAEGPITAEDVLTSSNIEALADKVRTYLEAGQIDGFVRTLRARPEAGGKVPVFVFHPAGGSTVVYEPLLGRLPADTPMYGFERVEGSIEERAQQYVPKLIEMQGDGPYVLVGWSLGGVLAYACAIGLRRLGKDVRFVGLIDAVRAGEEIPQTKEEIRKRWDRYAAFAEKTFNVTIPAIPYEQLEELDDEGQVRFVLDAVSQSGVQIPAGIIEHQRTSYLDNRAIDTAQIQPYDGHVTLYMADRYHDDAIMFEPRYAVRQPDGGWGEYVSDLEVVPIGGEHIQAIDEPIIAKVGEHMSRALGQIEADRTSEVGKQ
UniProt P9WFT3, whole entry: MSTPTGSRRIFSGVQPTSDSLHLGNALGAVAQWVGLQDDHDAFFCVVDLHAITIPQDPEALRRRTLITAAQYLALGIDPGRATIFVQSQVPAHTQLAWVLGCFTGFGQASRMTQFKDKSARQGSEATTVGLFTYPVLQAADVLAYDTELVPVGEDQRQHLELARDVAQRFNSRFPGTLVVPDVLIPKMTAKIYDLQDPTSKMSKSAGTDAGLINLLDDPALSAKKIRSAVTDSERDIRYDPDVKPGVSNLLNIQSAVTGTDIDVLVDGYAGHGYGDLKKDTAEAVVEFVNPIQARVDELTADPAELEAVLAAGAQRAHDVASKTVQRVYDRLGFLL
UniProt Q4DA54, 1-478: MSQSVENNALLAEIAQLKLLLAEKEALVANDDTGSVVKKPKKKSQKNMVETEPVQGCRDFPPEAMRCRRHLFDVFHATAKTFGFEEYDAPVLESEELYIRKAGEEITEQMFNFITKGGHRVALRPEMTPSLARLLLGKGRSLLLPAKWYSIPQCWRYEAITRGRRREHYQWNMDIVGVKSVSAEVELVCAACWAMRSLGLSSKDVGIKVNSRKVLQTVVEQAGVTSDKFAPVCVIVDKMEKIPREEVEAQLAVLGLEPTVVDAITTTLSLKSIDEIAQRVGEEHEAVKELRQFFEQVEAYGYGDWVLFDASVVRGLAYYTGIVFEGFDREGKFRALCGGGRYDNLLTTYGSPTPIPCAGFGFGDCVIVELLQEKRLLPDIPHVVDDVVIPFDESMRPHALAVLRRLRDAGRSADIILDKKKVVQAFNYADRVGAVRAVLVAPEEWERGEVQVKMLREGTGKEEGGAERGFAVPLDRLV

The values are deposited in ChEMBL (CHEMBL3988442, “University of Dundee, Small-Polar-MMV Screening Library” (2021)).

PfKRS1: 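Enzyme assay of the cytosolic lysyl-tRNA synthetase in 384-well plates, read by luminescence. Target: Lysine-tRNA ligase, Plasmodium falciparum 3D7 (UniProt Q8IDJ8). Concentration: 30 µM. Direction is inferred from only a few compounds that gave an IC50; most scored high, so higher reads as stronger inhibition. Size under these conditions: about 69,000 compounds, about 49 of them at 50% or above in at least one test.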
Pks13 thioesterase: 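Enzyme assay of the thioesterase domain of polyketide synthase 13; the read-out is not stated. Target: Polyketide synthase Pks13, Mycobacterium tuberculosis (UniProt I6X8D2). Concentration: 30 µM. The record gives no direction; the compounds picked for IC50 retests had high values, so higher reads as stronger inhibition. Of about 67,000 compounds tested this way, about 300 (0.46%) reached 50% or more in at least one test.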
MtTrpRS: 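Enzyme assay of tryptophanyl-tRNA synthetase; the read-out is not stated. Target: Tryptophan-tRNA ligase, Mycobacterium tuberculosis (UniProt P9WFT3). Compounds at 10 µM. Direction is not recorded; retested compounds ran higher, which suggests that high means inhibition. Size under these conditions: about 65,000 compounds, about 64 of them at 50% or above in at least one test.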
TcHisRS: 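Histidine-tRNA ligase, Trypanosoma cruzi CL Brener (UniProt Q4DA54). Enzyme assay of histidyl-tRNA synthetase; the read-out is not stated. Compounds at 30 µM. The record gives no direction; compounds that gave an IC50 in retests scored well above the rest, so higher reads as stronger inhibition. Of about 69,000 compounds tested this way, about 31 (0.045%) reached 50% or more in at least one test.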

Values are the deposited “Percent Effect”, in %.
How 0% and 100% were set is not recorded. Most values in the screen are low, and negative values occur.
Compounds were drawn at random from those tested, without regard to their results.
A dash means the value is not listed here; it may have been measured.

| Compound | PfKRS1 | Pks13 thioesterase | MtTrpRS | TcHisRS |
|---|---|---|---|---|
| `O=C(NCc1ccccn1)[C@H]1COC[C@H]2CN(Cc3ccoc3)C[C@H]21` | -1.572 | -11.86 | 1.831 | 6.077 |
| `COCCCN(Cc1ccccn1)S(=O)(=O)c1ccc(OC)cc1` | -0.975 | -5.628 | -0.4045 | 0.5181 |
| `CN1CCC2(COCc3cnc(N4CCOCC4)nc32)C1` (centres undefined) | -0.4781 | -25.02 | -0.603 | -3.825 |
| `Cc1cc(N)nc(SC2CCCN(Cc3ccccc3)C2=O)n1` (centres undefined) | 3.344 | -9.932 | -1.288 | 4.762 |
| `Cc1cn[nH]c1C1COCCN1S(=O)(=O)c1cn[nH]c1` (centres undefined) | 0.7445 | -7.366 | -1.725 | 3.802 |
| `CCc1ncnc2c1CCN(S(=O)(=O)CC)CC2` | 3.621 | - | - | 0.5025 |
| `COc1ccc(OC)c(C(O)CNC(=O)Nc2cc(C)nn2C)c1` (centres undefined) | -0.01334 | -14.82 | -1.144 | 5.882 |
| `CC(C)c1ccc(OCCC(=O)N2CCC(C(N)=O)CC2)cc1` | -0.9745 | 1.636 | -7.596 | 8.876 |
| `CCC(Nc1nnnn1-c1ccccc1)C(=O)NCc1cccs1` (centres undefined) | 3.344 | -29.41 | -6.175 | 3.333 |
| `CN(C)C(=O)[C@H]1C[C@H]2OCC[C@H]2N(Cc2ccc3ccccc3n2)C1` | -0.8509 | -38.26 | 6.568 | 12.75 |
| `O=C(NCc1nnc2n1CCCC2)c1ccc(C2CCCO2)s1` (centres undefined) | -3.572 | -6.022 | -0.3028 | 4.02 |
| `COC(=O)NCc1cc2n(n1)CCCN(C(C)=O)C2` | 6.759 | -1.613 | 2.256 | 4.132 |
| `Cc1ccc(-c2nnc(C(C)N3CCn4c(C)nnc4C3)o2)cc1` (centres undefined) | -0.8246 | 6.431 | -4.974 | 8.889 |
| `COc1cccc(C2(C(=O)NC3CCc4nccn4C3)CCCC2)c1` (centres undefined) | 5.604 | - | 1.955 | 18.33 |
| `CCOCC1CCN(C(=O)C(c2ccccc2F)N(C)C)CC1` (centres undefined) | 15.68 | -33.39 | 0.122 | 10.73 |
| `Cn1ccc(C(=O)NC2CCC23CCN(Cc2ccc(F)cc2)CC3)c1` (centres undefined) | 8.708 | 13.81 | 1.119 | 11.06 |
| `CC(C)(C)c1cc(NC(=O)CN2CCCC2Cn2cccn2)on1` (centres undefined) | -0.4288 | -19.8 | 4.373 | 0.8547 |
| `CN(C)C(=O)Cn1c2c(ccc1=O)CCN(Cc1cnn(C)c1)CC2` | 1.934 | 2.411 | - | 6.145 |
| `COCCC(=O)N1CCC2(CCN(Cc3ccc(C)cc3)CC2)C1` | 0.713 | -0.6799 | 0.9856 | -4.082 |
| `CC(CC#N)N(C)Cc1ccc(F)cc1C#N` (centres undefined) | -0.6822 | 10.94 | 6.924 | -0.5405 |
| `NC(=O)CSc1ccccc1NC(=O)C1CCCC1` | 2.765 | -1.756 | -3.357 | 6.03 |
| `CCCNC(=O)CCC(=O)N1CCC(c2noc3cc(F)ccc23)CC1` | 1.705 | 7.33 | -0.6441 | 0.8 |
| `COCCC1COC2(CCN(C(=O)Cc3ccccc3)CC2)C1` (centres undefined) | 3.672 | - | -1.095 | 5.882 |
| `COc1ccccc1OC1CN(Cc2ccc(C(=O)O)cc2)C1` | 0.02323 | -1.819 | 0.7947 | 6.627 |
| `O=S(=O)(Nc1cn[nH]c1)c1ccc(Br)c(F)c1` | 6.056 | -14.79 | -0.8475 | 2.521 |
| `CC(NC(=O)NCCCOc1ccccc1F)c1nncn1C` (centres undefined) | 15.73 | -11.71 | -2.36 | -2.521 |
| `Cc1cc(C(=O)NCC2OCCc3cn(CC4CC4)nc32)c(C)[nH]1` (centres undefined) | 5.395 | 24.51 | - | 28.49 |
| `CCc1ccc2nc(C)cc(C(=O)N[C@@H]3C[C@@H](CO)N(C)C3)c2c1` | 1.304 | -16.64 | -4.542 | 7.463 |
| `CCc1nnc(CN2CCC3(CC2)Nc2ccccc2NC3=O)o1` | 6.497 | -0.7816 | 0.3636 | 5.806 |
| `Cc1nn2c(-c3cnn(C)c3)nnc2s1` | 5.751 | -4.049 | -0.3215 | 2.97 |
| `Cc1cc(C(=O)NCC2(C(N)=O)CCOCC2)nn1C(C)(C)C` | 4.925 | -29.38 | 4.103 | 6.173 |
| `COCCn1cncc1CN1CCC(C(C)=O)(c2ccccc2)CC1` | 1.94 | -47.82 | -0.516 | 3.896 |
| `CC(=O)NC1CCCN(C(=O)CCc2cccnc2)C1` (centres undefined) | 1.066 | -11.25 | 4.681 | 1.587 |

For reference, 4 entries once more:

- Cn1ccc(C(=O)NC2CCC23CCN(Cc2ccc(F)cc2)CC3)c1 (centres undefined) | PfKRS1: 8.708%; Pks13 thioesterase: 13.81%; MtTrpRS: 1.119%; TcHisRS: 11.06%
- O=S(=O)(Nc1cn[nH]c1)c1ccc(Br)c(F)c1 | PfKRS1: 6.056%; Pks13 thioesterase: -14.79%; MtTrpRS: -0.8475%; TcHisRS: 2.521%
- CC(CC#N)N(C)Cc1ccc(F)cc1C#N (centres undefined) | PfKRS1: -0.6822%; Pks13 thioesterase: 10.94%; MtTrpRS: 6.924%; TcHisRS: -0.5405%
- CCc1nnc(CN2CCC3(CC2)Nc2ccccc2NC3=O)o1 | PfKRS1: 6.497%; Pks13 thioesterase: -0.7816%; MtTrpRS: 0.3636%; TcHisRS: 5.806%